Paper PMC10575729
Results are given in words; binding and its absence hold for the method and conditions named. In cells and extracts the contact can be indirect. Here binding means that the protein was enriched with, or labelled near, the bait; the list need not be complete.

By UniProt entry, the sequences of proteins in these tests, tags left out.
UniProt Q9H4Z3: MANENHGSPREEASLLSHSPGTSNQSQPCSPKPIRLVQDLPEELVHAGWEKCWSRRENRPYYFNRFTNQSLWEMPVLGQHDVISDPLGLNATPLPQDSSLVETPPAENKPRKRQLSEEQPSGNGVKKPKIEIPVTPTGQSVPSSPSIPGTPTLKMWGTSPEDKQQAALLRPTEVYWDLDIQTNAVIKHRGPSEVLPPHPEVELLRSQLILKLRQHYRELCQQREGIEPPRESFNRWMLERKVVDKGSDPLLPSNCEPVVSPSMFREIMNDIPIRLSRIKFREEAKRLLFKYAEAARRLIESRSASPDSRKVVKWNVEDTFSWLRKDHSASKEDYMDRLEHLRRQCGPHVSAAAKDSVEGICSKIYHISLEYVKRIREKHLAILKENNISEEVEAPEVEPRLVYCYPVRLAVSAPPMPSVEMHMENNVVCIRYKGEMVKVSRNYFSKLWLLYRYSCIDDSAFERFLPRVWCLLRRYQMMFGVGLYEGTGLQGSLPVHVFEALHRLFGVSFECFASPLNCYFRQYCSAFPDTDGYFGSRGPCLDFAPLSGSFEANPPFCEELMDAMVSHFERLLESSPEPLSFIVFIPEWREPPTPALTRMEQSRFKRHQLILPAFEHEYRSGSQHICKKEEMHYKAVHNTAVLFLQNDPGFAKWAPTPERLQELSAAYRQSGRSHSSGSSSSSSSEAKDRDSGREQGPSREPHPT

Target: Phosphorylated RNA polymerase II CTD-interacting factor 1 (PCIF1), endogenous (human (endogenous in SCC25)) (UniProt Q9H4Z3)
Experiment: affinity purification with mass spectrometry; endogenous PCIF1 precipitated with a specific antibody from SCC25 cells, replicates, IgG control; MS-iTRAQ / LC-MS/MS of gel bands

C-terminal binding protein 2 (CTBP2), endogenous (from UniProt P56545 1-445)
binding: binds
